Drawing on article PMC10779086, “3-O-Methyltolcapone and Its Lipophilic Analogues Are Potent Inhibitors of Transthyretin Amyloidogenesis with High Permeability and Low Toxicity” (International Journal of Molecular Sciences, 2023), this text covers EC50 for one compound.

Each structure is given as a SMILES string.

For the assay, the system named is HepG2 human liver cancer cell line. As to the kind of experiment: Cytotoxicity in HepG2 cells (ATP viability assay). It counts as cell-based. The settings on record: 48 h. As to the method: The human liver cancer cell line HepG2 (ATCC HB-8065) was cultured in MEM ATCC medium supplemented with 10% FBS (Euroclone CAT No. ECS0180D), 100 units/mL penicillin, and 100 ug/mL streptomycin sulphate (Euroclone CAT No. ECB3001). Cells were grown at 37 °C in an atmosphere of 5% CO2 and plated at 10,000 cells/well in a 96-well plate (Corning Cat. N. 3610). Compounds were dissolved at the concentration of 50 mM in DMSO.
Cells were stimulated for 48 h at 37 °C with serial dilutions of the compounds at the following concentrations: 0.1, 1, 10, 50, 100, 200, 300, and 500 μM and dispensed with an HP Dispenser (Tecan), as triplicates for each concentration. DMSO normalisation at 1.0% was performed in each well. Lysis buffer was used as a positive control of dead cells with tamoxifen (Sigma-Aldrich CAT No. T5648).
Cell viability was evaluated by measuring ATP levels using CellTiter Glo (Promega Cat.n. G7570) according to manufacturer’s instructions.

The compound `CC/C(=C(\c1ccccc1)c1ccc(OCCN(C)C)cc1)c1ccccc1` [Tamoxifen, tamoxifen, reference compound] registered a half-maximal effective concentration (EC50) of 14 µM.

Broadly, the EC50 is the concentration at which the effect is half-maximal. Low readings indicate an effect from little substance, high ones a need for much substance.
